Assay results published in the supplement of paper PMC11006884.
The list shows a part of the results, in another mix than the full data. Single values of this set are uncertain.

What follows are targets tested with COC(=O)/C=C/c1ccccc1 [methyl cinnamate] (assay: log2 ratio of iodoacetamide-alkyne labeling of the cysteine site, DMSO over compound (competition); higher = stronger covalent engagement of the cysteine by the compound, active = 1 or more). Conditions: 500 µM; treatment time 1 h; system: HEK293T cell lysate.
Summary of the method: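 For each cysteine, the log2 competition ratio is mean control-channel reporter intensity over mean compound-channel reporter intensity. HEK293T lysate (2 mg/mL) was exposed to vehicle or electrophile (500 µM, 1 h, ambient temperature), labelled with iodoacetamide alkyne (1 h), clicked to sCIP-TMT reagents, digested overnight with trypsin at 37 °C, streptavidin-enriched and analysed by Orbitrap Eclipse LC-MS/MS with FAIMS and FragPipe. Cysteines quantified in only one of three replicates, each with duplicate channels, were excluded.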

log2 ratio of iodoacetamide-alkyne labeling, inactive:
MIPEP C649 (UniProt Q99797) 0.634
PUS7 C38 (UniProt Q96PZ0) 0.0488
LYSMD1 C32 (UniProt Q96S90) 0.158
STRBP C142 (UniProt Q96SI9) 0.229
UniProt Q96JM3_C194 0.282
ZFR C525 (UniProt Q96KR1) 0.86
UHRF1 C497 (UniProt Q96T88) 0.19
NACC1 C416 (UniProt Q96RE7) 0.141
SH3GL1 C147 (UniProt Q99961) 0.186
NEK1 C276 (UniProt Q96PY6) 0.0187
ZFR C844 (UniProt Q96KR1) 0.00449
SPEN C1134 (UniProt Q96T58) -0.289
RNF2 C179 (UniProt Q99496) 0.134
ATAD5 C1529 (UniProt Q96QE3) 0.116
AGAP3 C356 (UniProt Q96P47) 0.442
PBK C22 (UniProt Q96KB5) 0.24
UniProt Q99590_C346 0.0194
CRBN C188 (UniProt Q96SW2) -0.17
SCYL1 C512 (UniProt Q96KG9) 0.0134
ZFR C812 (UniProt Q96KR1) 0.194
SUCLG2 C162 (UniProt Q96I99) 0.249
RBM14 C90 (UniProt Q96PK6) 0.15
RNF2 C72 (UniProt Q99496) 0.22
PBK C70 (UniProt Q96KB5) 0.0917
PASK C15 (UniProt Q96RG2) 0.216
UniProt Q96TA1_C154 0.12
SPAG5 C382 (UniProt Q96R06) 0.16
CRBN C441 (UniProt Q96SW2) -0.00577
MYBBP1A C338 (UniProt Q9BQG0) 0.191
ACO2 C740 (UniProt Q99798) -0.0692
PBK C112 (UniProt Q96KB5) 0.0874
KIF2C C245 (UniProt Q99661) 0.39
MMS19 C599 (UniProt Q96T76) 0.238
RSF1 C944 (UniProt Q96T23) 0.0975
VAT1 C50 (UniProt Q99536) 0.105
SPAG5 C589 (UniProt Q96R06) -0.0142
XPO6 C22 (UniProt Q96QU8) -0.0263

Nothing new here: entries from further up.
log2 ratio of iodoacetamide-alkyne labeling, inactive:
STRBP C142 (UniProt Q96SI9) 0.229
UniProt Q96JM3_C194 0.282
